Results on 28 compounds are retold here after PubChem BioAssay AID330 (DTP/NCI, 2004).

The list does not hold the whole screen: it gathers tests that were run many times, whatever their T/C, doses with no T/C, and many T/C values between a quarter and a half above the control. Other doses and runs of a compound stand elsewhere. T/C gives the treated animals as a percentage of the vehicle group. Some doses have a count of surviving animals in place of a T/C: the source holds a T/C of zero for them, seemingly a mark for toxic or unscored doses. Some doses without a T/C left all or most animals alive at the check, yet need not have been tolerated: survival well below the control is almost never listed, so the zero probably covers shortened survival too. Survivors were counted at the toxicity check, usually on the fifth day, unless a day is given; later deaths do not show. Schedules are NCI's codes, taken here to give the interval after Q, in days (D) or hours (H), and the number of doses after X. Some entries hold several experiments; the results are listed from low to high. Where survival is the endpoint, this PubChem deposit counts one and a half times the control or more as active, and values a quarter to a half above the control carry no call in these data; other NCI protocols may use other cut-offs.

The test deals with P388 leukemia ip, CD2F1 mice, survival T/C. In words: NCI In Vivo Anticancer Drug Screen. Data for tumor model P388 Leukemia (intraperitoneal) in CD2F1 (CDF1) mice. The following applies: T/C endpoint: median survival time, higher T/C = longer survival.
Where [1] appears, read: dose: 240.0 mg/kg/injection, schedule: Q01DX005 (ip), vehicle: saline with Tween-80.
Setting [2] is: dose: 200.0 mg/kg/injection, schedule: Q01DX009 (ip), vehicle: Klucel (hydroxypropylcellulose) (HPC).
The mark [3] stands for this setting: dose: 50.0 mg/kg/injection, schedule: Q01DX009 (ip), vehicle: saline with Tween-80.
The mark [4] stands for this setting: dose: 100.0 mg/kg/injection, schedule: Q01DX009 (ip), vehicle: saline with Tween-80.
Where [5] appears, read: dose: 200.0 mg/kg/injection, schedule: Q01DX009 (ip), vehicle: saline with Tween-80.
Setting [6] is: dose: 200.0 mg/kg/injection, schedule: Q01DX005 (ip), vehicle: saline with Tween-80.
[7] abbreviates: dose: 25.0 mg/kg/injection, schedule: Q01DX009 (ip), vehicle: saline with Tween-80.
Where [8] appears, read: dose: 400.0 mg/kg/injection, schedule: Q04DX003 (ip), vehicle: saline with Tween-80.

With `COC(=O)NC1C(C)OC(OC2C/C=C(/C)C3C=CC4C(OC5CC(OC6CCC(OC7CC(O)C(OC8CCC(O)C(C)O8)C(C)O7)C(C)O6)C(OC(C)=O)C(C)O5)C(C)CC(C)C4C3(C)/C(O)=C3/C(=O)OC4(CC(C=O)=CC(O)C4/C=C\2C)C3=O)CC1(C)[N+](=O)[O-]` (stereo not drawn), the T/C (dose: 5.0 mg/kg/injection, schedule: Q01DX005 (ip), vehicle: water) was 125 % of control. Moreover, the survivor count is, setting by setting: (dose: 14.93 mg/kg/injection, schedule: Q01DX005 (ip), vehicle: water) 6 of 10; (dose: 20.0 mg/kg/injection, schedule: Q01DX005 (ip), vehicle: water) 3 of 6; (dose: 22.28 mg/kg/injection, schedule: Q01DX005 (ip), vehicle: water) 3 of 10; (dose: 40.0 mg/kg/injection, schedule: Q01DX005 (ip), vehicle: water) 0 of 6.

Regarding `CC(=O)C1(c2ccccc2)CCN(c2c3ccccc3nc3ccccc23)CC1`, the T/C (dose: 400.0 mg/kg/injection, schedule: Q04DX003 (ip), vehicle: Klucel (hydroxypropylcellulose) (HPC)) is 128 % of control.

As for `O=[N+]([O-])c1cccc2c1nnn2OC1CCCC1`, the survivor count (dose: 400.0 mg/kg/injection, schedule: Q01DX001 (ip), vehicle: saline with Tween-80) was 2 of 6.

Turning to `C/C=C/C(O)CC1CCCCN1` (stereo not drawn), the survivor count is recorded as 0 of 6 (dose: 200.0 mg/kg/injection, schedule: Q04DX003 (ip), vehicle: saline) and 0 of 6 (dose: 400.0 mg/kg/injection, schedule: Q04DX003 (ip), vehicle: saline).

`CC1(O)OC(COc2ccc(Cl)cc2)COC1O` (stereo not drawn): the T/C under setting [1] was 125 % of control.

In the case of `OC1(c2ccccc2C(O)(C(F)(F)F)C(F)(F)F)OC(C(F)(F)F)(C(F)(F)F)c2ccccc21` (stereo not drawn), the survivor count is, setting by setting: (dose: 50.0 mg/kg/injection, schedule: Q01DX009 (ip), vehicle: Klucel (hydroxypropylcellulose) (HPC)) 4 of 6; (dose: 100.0 mg/kg/injection, schedule: Q01DX009 (ip), vehicle: Klucel (hydroxypropylcellulose) (HPC)) 6 of 6; under setting [2], 0 of 6.

For `O=NNc1ccc(S(=O)(=O)c2ccccc2)cn1`, for the setting “dose: 50.0 mg/kg/injection, schedule: Q01DX009 (ip), vehicle: sodium bicarbonate”, the T/C is 147 % of control.

With `CCOC(=O)CN1CN(CCc2ccccc2)CC(C)(C)C1OCC` (stereo not drawn), the T/C is, setting by setting: under setting [3], 128 % of control; under setting [4], 135 % of control; under setting [5], 137 % of control.

For the compound `N=C(N)C(Cl)(Cl)Cl`, the survivor count reads like this: under setting [4], 1 of 6; under setting [5], 0 of 6.

For `CCCC(=O)Oc1ccc[nH]c1=O`, the T/C (dose: 12.5 mg/kg/injection, schedule: Q01DX009 (ip), vehicle: water) is 133 % of control.

Take `CC1=CC2=C(C=O)C(=O)[C@](C)(O)[C@@H](O)C2=CO1`: the survivor count under setting [3] is 6 of 6.

For `Cc1cc(N=[N+]=[N-])c2ccc(F)cc2n1`, under setting [1], the survivor count is 0 of 6.

`COc1ccc(CCN2CCC(Nc3nc4ccccc4n3Cc3ccc(F)cc3)CC2)cc1`: under setting [6], the survivor count was 0 of 6.

As for `CC1(C)N=C(N)N=C(N)N1c1cccc(CCCCc2ccc(S(=O)(=O)F)cc2)c1`, the survivor count is, setting by setting: (dose: 50.0 mg/kg/injection, schedule: Q04DX003 (ip), vehicle: saline) 6 of 6; (dose: 100.0 mg/kg/injection, schedule: Q04DX003 (ip), vehicle: saline) 5 of 6.

As for `CCOC(=O)C(Cc1ccccc1)NO` (stereo not drawn), the survivor count is 3 of 6 under setting [7], 6 of 6 under setting [3], 6 of 6 under setting [4] and 4 of 6 under setting [5].

For `O=C(O)c1cc2c3ccccc3sc2c2ccccc12`, the survivor count (dose: 60.0 mg/kg/injection, schedule: Q01DX005 (ip), vehicle: Klucel (hydroxypropylcellulose) (HPC)) is 6 of 6 and the survivor count (dose: 120.0 mg/kg/injection, schedule: Q01DX005 (ip), vehicle: Klucel (hydroxypropylcellulose) (HPC)) was 6 of 6.

Consider `O=C(O)C(O)C1CCCCC1` (stereo not drawn), for which the survivor count under setting [5] is listed as 6 of 6.

In the case of `O=C(NCc1ccccc1)OCc1c(COC(=O)NCc2ccccc2)c(-c2ccc(Cl)c(Cl)c2)n2c1CCC2`, under “dose: 6.25 mg/kg/injection, schedule: Q01DX009 (ip), vehicle: distilled water + Tween-80”, the T/C is 148 % of control. The survivor count (dose: 200.0 mg/kg/injection, schedule: Q01DX009 (ip), vehicle: distilled water + Tween-80) was 3 of 6 and 6 of 6.

Consider `O=[N+]([O-])c1c(Cl)sc(Cl)c1[N+](=O)[O-]`, for which the survivor count is, setting by setting: (dose: 6.25 mg/kg/injection, schedule: Q01DX009 (ip), vehicle: saline with Tween-80) 6 of 6; (dose: 12.5 mg/kg/injection, schedule: Q01DX009 (ip), vehicle: saline with Tween-80) 3 of 6 and 6 of 6; under setting [7], 0 of 6; under setting [3], 0 of 6; under setting [4], 0 of 6; under setting [5], 0 of 6. For the same compound, where the note is “dose: 400.0 mg/kg/injection, schedule: Q01DX009 (ip), vehicle: saline with Tween-80”, the survivor count is reported as 0 of 6.

Turning to `CCOC(=O)C1=C(c2ccccc2)N=c2ccccc2=S1C` (stereo not drawn), the survivor count runs as follows: (dose: 120.0 mg/kg/injection, schedule: Q01DX005 (ip), vehicle: saline with Tween-80) 2 of 6; under setting [1], 0 of 6.

Take `C#CC(O)C1CC1` (stereo not drawn): the survivor count by setting is: (dose: 200.0 mg/kg/injection, schedule: Q01DX001 (ip), vehicle: saline + Tween-80 + alcohol) 1 of 6; (dose: 400.0 mg/kg/injection, schedule: Q01DX001 (ip), vehicle: saline + Tween-80 + alcohol) 0 of 6.

`CCC(C)(C)N=C(NC(=O)C(F)(F)F)Nc1cccnc1`: the survivor count under setting [8] is 5 of 6.

In the case of `O=c1[nH]c(=O)n(C2CC(O)C(CO)O2)cc1S` (stereo not drawn), the T/C (dose: 100.0 mg/kg/injection, schedule: Q01DX009 (ip), vehicle: saline) is recorded as 136, 137, 138 % of control.

For `NCC(=O)O.[Cl][Ga]([Cl])[Cl]`, the survivor count (dose: 200.0 mg/kg/injection, schedule: Q04DX003 (ip), vehicle: saline sonified) was 4 of 6 and the survivor count (dose: 400.0 mg/kg/injection, schedule: Q04DX003 (ip), vehicle: saline sonified) is 2 of 6.

For the compound `CC(=O)SCC(C)CCl` (stereo not drawn), the survivor count under setting [8] is recorded as 5 of 6.

Take `NC(=Nc1ccccc1)SCCCCCCSC(N)=Nc1ccccc1`: the survivor count under setting [2] is listed as 0 of 6.

With `C=CC(O)CN1CC1` (stereo not drawn), the T/C runs as follows: (dose: 0.62 mg/kg/injection, schedule: Q01DX009 (ip), vehicle: saline) 125 % of control; (dose: 1.5 mg/kg/injection, schedule: Q04DX003 (ip), vehicle: saline) 140 % of control; (dose: 15.0 mg/kg/injection, schedule: Q04DX003 (ip), vehicle: saline) 136 % of control. Also, the survivor count is, setting by setting: (dose: 5.0 mg/kg/injection, schedule: Q01DX009 (ip), vehicle: saline) 0 of 6; (dose: 10.0 mg/kg/injection, schedule: Q01DX009 (ip), vehicle: saline) 0 of 6; (dose: 100.0 mg/kg/injection, schedule: Q04DX003 (ip), vehicle: saline with Tween-80) 0 of 6; (dose: 200.0 mg/kg/injection, schedule: Q04DX003 (ip), vehicle: saline with Tween-80) 0 of 6; under setting [8], 0 of 6.

`O=C1C2CC(Cl)C(SSC3CC4C(=O)N(SC(Cl)(Cl)C(Cl)Cl)C(=O)C4CC3Cl)CC2C(=O)N1SC(Cl)(Cl)C(Cl)Cl` (stereo not drawn): the survivor count reads like this: (dose: 25.0 mg/kg/injection, schedule: Q01DX005 (ip), vehicle: saline with Tween-80) 2 of 5; (dose: 50.0 mg/kg/injection, schedule: Q01DX005 (ip), vehicle: saline with Tween-80) 0 of 5; (dose: 100.0 mg/kg/injection, schedule: Q01DX005 (ip), vehicle: saline with Tween-80) 0 of 5; under setting [6], 0 of 5.
